Laboratory results reported in PubChem BioAssay AID2685 (National Center for Advancing Translational Sciences (NCATS), 2010).
Some of the results follow. Further columns of the screen follow, without active or inactive calls. Most of these compounds were active or inconclusive in the main read-out, so they are no random draw. The note in brackets gives the kind of curve behind each potency; many fits are weak.

Assay: qHTS Assay for Lipid Storage Modulators in Drosophila S3 Cells;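 for cell number change: cells counted by Cell Tracker Red CMTPX staining in the red channel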
Conditions: BODIPY lipid droplet fluorescence, 18-24 h; for cell number change: measured here: cell count max response, cells fed with added oleic acid
Procedure, shortened: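 Drosophila S3 cells loaded with oleic acid (400 uM, as added) and compounds at several concentrations; lipid droplets imaged by 488-nm laser-scanning cytometry, 500–530 nm intensity and object ratio to cell channel. Percent activity normalized to 20 uM Triacsin C.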

[1] = measured here: cell number channel AC50, cells fed with added oleic acid
[2] = measured here: lipid fluorescence (Fed channel) AC50, cells fed with added oleic acid

Structure (SMILES) | cell number change | AC50 [1] | AC50 [2]
CCC(=O)Nc1ccccc1C(=O)OCC(=O)c1cccc2ccccc12 | -8.07% |  | 
Cc1nnc(SCc2cc(=O)[nH]c(/N=C(\N)Nc3ccccc3)n2)s1 | 8.54% | 2060 nM [rising, partial curve, poor fit] | 20600 nM [rising, single point]
O=C(COc1ccccc1F)OCC(=O)N1CCc2ccccc21 | -19% | 3260 nM [falling, single point] | 
CN1CCN(CCC(=O)Nc2ccc(C3CCCC3)cc2)CC1 | -6.43% | 2060 nM [rising, partial curve, poor fit] | 
O=C(NCCCN1CCOCC1)C(=O)NCc1ccco1 | 17.3% |  | 651 nM [falling, single point]
COc1ccc(/C=C/C(=O)OCC(=O)c2c(N)n(C)c(=O)n(C)c2=O)c(OC)c1 | -11.1% |  | 
Fc1ccccc1NC(=S)NCc1ccccc1 | 8.78% |  | 29100 nM [falling, single point]
O=Nc1c(-c2c(O)[nH]c3cc(Br)ccc23)[nH]c2ccccc12 | -33.9% | 2910 nM [falling, full curve] | 25900 nM [falling, single point]
O=c1c2ccccc2nc(CSc2nnnn2-c2ccccc2)n1-c1cccc(C(F)(F)F)c1 | 68.8% | 461 nM [rising, full curve] | 5.17 nM [rising, full curve, poor fit]
Brc1cccc(-c2cnc3n2CCCCC3)c1 | -12.4% |  | 
COc1ccc(CCNC(=O)c2nnc(Cc3ccc(Cl)cc3)o2)cc1OC | -12.3% |  | 29100 nM [rising, single point]
Nn1c(COc2cccc(Br)c2)nnc1SCC(=O)N1CCc2ccccc2C1 | -6.15% |  | 731 nM [rising, full curve, poor fit]
Cc1ccc(N(C(=O)CS(=O)CC(=O)Nc2ccc(F)cc2)C(C)C(=O)NC(C)(C)C)cc1 (stereo not given) | 25.7% | 6510 nM [rising, single point] | 
COc1ccc(NC(=O)c2sc3nc(C)cc(C)c3c2N)cc1 | -19.2% |  | 14600 nM [falling, partial curve, poor fit]
COC(=O)c1c(NC(=O)C2CC=CCC2C(=O)O)sc(C(N)=O)c1C (stereo not given) | -0.165% |  | 10.3 nM [rising, full curve, poor fit]
CSc1nc2c(c(=O)[nH]1)C(c1ccc(Cl)cc1)CC(=O)N2 (stereo not given) | -22.8% |  | 
Cc1ccc(C(=O)NCC(=O)OCC(=O)Nc2ccc(Cl)cn2)cc1 |  |  | 3260 nM [falling, full curve]
COC(=O)c1cc(NC(=O)c2cccnc2)ccc1N1CCOCC1 | 28.8% |  | 
COC(=O)c1ccc(C(=O)NC2CCCc3c2cnn3-c2cc(F)cc(F)c2)nc1 (stereo not given) | -70.9% | 326 nM [falling, full curve] | 231 nM [falling, full curve]
CCCCCCCCOC(=O)/C=C/c1c(C)[nH]c(=O)[nH]c1=O | -38.4% | 116 nM [falling, full curve, poor fit] | 116 nM [falling, full curve, poor fit]

Structure (SMILES) | cell number change | AC50 [1] | AC50 [2]
O=C(CSC(=S)N1CCOCC1)N1N=CCC1c1ccccc1 (stereo not given) | -40.7% | 3260 nM [falling, full curve] | 3660 nM [falling, full curve]
Cn1cc(CN2CCCC(C(=O)Nc3ccc(-c4cccc(F)c4)cc3)C2)cn1 (stereo not given) |  |  | 6510 nM [rising, single point]
COC(=O)c1[nH]c2cccc(OC)c2c1NC(=O)C(C)N1CCC(C)CC1 (stereo not given) | 20.2% | 461 nM [falling, single point] | 
Clc1ccc(CSc2nc3ccncc3[nH]2)cc1 | -6.98% |  | 
CC(C)NC(=O)c1ccccc1-c1ccccc1 | -16.9% | 58 nM [falling, full curve, poor fit] | 3660 nM [falling, partial curve, poor fit]
Cc1ccc(S(=O)(=O)N2CC(C(=O)O)=CC[C@H]2c2ccc(Cl)cc2)cc1 | 16.2% | 130 nM [rising, full curve, poor fit] | 10300 nM [falling, partial curve, poor fit]
COc1ccccc1C1(O)CCN(C(=O)c2cccs2)CC1 | -6.59% |  | 
Cc1nc(C)c(C(=O)NCc2ccc(Cl)cc2)o1 | -25.5% |  | 
Cc1cc2nsnc2c(S(=O)(=O)N2CCN(C)CC2)c1C | 2.86% | 1300 nM [rising, full curve] | 
Cc1noc(C)c1C(=O)NCc1ccccc1F | 18.3% |  | 
CCOCc1cnc(C)nc1NCC(=O)c1c(C)[nH]c2ccccc12 | 34.9% | 25900 nM [rising, single point] | 25900 nM [rising, single point]
CCn1c(=O)c2cc(C(=O)N3CCN(C(=O)c4ccco4)CC3)sc2c2ccccc21 | -49.4% | 23100 nM [falling, partial curve] | 32600 nM [falling, single point]
COC(=O)c1ccc(-c2nc3ccccc3o2)cc1 | 7.56% |  | 
Cc1ccc(CNc2ncnc3cc(Cl)ccc23)cc1 | -23% |  | 32600 nM [falling, single point]
COc1ccc(C(=O)NNC(=S)Nc2ccccc2)cc1 | 44.3% |  | 
CC(C)C(NC(=O)c1c(F)cccc1F)C(=O)N1CCN(c2ccccc2F)CC1 (stereo not given) | 10.3% |  | 
O=C(Nc1ccccc1Cl)Nc1ccnn1C1CCN(C(=O)CCN2CCCO2)CC1 |  |  | 2910 nM [falling, single point]
CC(=O)Nc1ccc(N(CC(=O)NC2CCCCC2)C(=O)Cn2nnc(-c3ccccc3)n2)cc1 | 17.4% |  | 6510 nM [rising, single point]
CC(C)c1ccc(O)c(NC(=O)c2cncc(Br)c2)c1 |  | 580 nM [rising, single point] | 
Nc1nnc(-c2cn(-c3ccccc3)nc2-c2ccccc2)o1 | 67.4% | 731 nM [rising, full curve, poor fit] | 731 nM [rising, full curve]

Some of the entries so far, as a markdown table:

| Structure (SMILES) | cell number change | AC50 [1] | AC50 [2] |
| --- | --- | --- | --- |
| CC(=O)Nc1ccc(N(CC(=O)NC2CCCCC2)C(=O)Cn2nnc(-c3ccccc3)n2)cc1 | 17.4% |  | 6510 nM [rising, single point] |
| CC(C)c1ccc(O)c(NC(=O)c2cncc(Br)c2)c1 |  | 580 nM [rising, single point] |  |
| Nc1nnc(-c2cn(-c3ccccc3)nc2-c2ccccc2)o1 | 67.4% | 731 nM [rising, full curve, poor fit] | 731 nM [rising, full curve] |

Further structures follow:

Structure (SMILES) | cell number change | AC50 [1] | AC50 [2]
Cc1cccc(NC(=O)N(Cc2cc3cc(C)cc(C)c3[nH]c2=O)CC2COCCO2)c1 (stereo not given) | 45.4% | 731 nM [rising, full curve] | 651 nM [rising, full curve]
NC(=O)c1ccc(NC(=O)c2ccc3c(c2)CCN3S(=O)(=O)c2ccccc2)cc1 | -40.7% | 18400 nM [falling, single point] | 
CC(=O)c1cnc(Nc2ccc(C)cc2)s1 | -4.41% | 82 nM [rising, full curve] | 731 nM [rising, full curve, poor fit]
O=C(COc1ccc(Cl)cc1)NCCCNC(=O)c1ccccn1 |  | 580 nM [rising, full curve, poor fit] | 
COc1cc(OC)cc(C(=O)NC(C(=O)NNC(=O)c2cc(Cl)ccc2OC)C(C)C)c1 (stereo not given) | -4.83% |  | 29100 nM [rising, single point]
FC(F)(F)c1ccc(Sc2nnc(-c3cccs3)n2CC2CCCO2)nc1 (stereo not given) |  | 6510 nM [rising, single point] | 2910 nM [rising, partial curve]
Cc1n[nH]c(=O)c2c(NC(=O)COC(=O)c3ncc(Cl)c(Cl)c3Cl)oc(C)c12 | -30.7% | 4610 nM [falling, full curve, poor fit] | 25900 nM [falling, single point]
COc1ccccc1OCC(=O)NCCSCc1cccc(Cl)c1 | 128% | 16400 nM [rising, partial curve] | 23100 nM [rising, single point]
Cc1ccc(-n2nc3c(=O)n(CCCC(=O)NCc4ccccc4Cl)nc(C)c3c2C)cc1 | 30.9% | 1460 nM [rising, full curve, poor fit] | 5170 nM [rising, partial curve]
CCOP(=O)(/C(C#N)=C(\C)O)c1ccccc1 (stereo not given) | -26.5% | 4.11 nM [falling, full curve, poor fit] | 
O=S(=O)(c1ccccc1)c1nc(-c2ccccc2)oc1NCc1cccnc1 | -29% |  | 1460 nM [rising, partial curve, poor fit]
CCN1C(=O)C2(C(C#N)=C(N)Oc3n[nH]c(-c4ccccc4)c32)c2ccccc21 (stereo not given) | -8.52% |  | 
O=C(NC(=S)Nc1ccc2c(c1)OCO2)c1ccc(Cl)cc1 |  | 580 nM [rising, single point] | 116 nM [rising, full curve, poor fit]
COc1cccc(C2=NN(C(=O)c3ccco3)C(c3ccco3)C2)c1 (stereo not given) | 17.1% |  | 4.61 nM [rising, full curve, poor fit]
O=C(NCCCN1CCCC1=O)C(=O)Nc1cccc(F)c1 | 17.5% |  | 
COc1cc(C(=O)NCC(C)(C)CNC(=O)c2cc(OC)c(OC)c(OC)c2)cc(OC)c1OC | -7.41% |  | 
CCOc1ncccc1C(=O)OCCN1C(=O)c2ccccc2C1=O | -7.99% |  | 130 nM [falling, full curve, poor fit]
CCc1ccc2nc(N(CCN(C)C)C(=O)c3ccc4ccccc4c3)sc2c1 |  |  | 13000 nM [rising, partial curve, poor fit]
COc1cc2ccccc2cc1C(=O)OCc1nc2ccsc2c(=O)[nH]1 | -65.5% | 14600 nM [falling, partial curve] | 461 nM [falling, full curve]
CCN(CC)S(=O)(=O)c1ccc2c(c1)nc(CCC(=O)O)n2C | 15.7% |  | 
